Amino acid sequences for entries named in this document (tags omitted). Residues count along the entry.
UniProt P46461: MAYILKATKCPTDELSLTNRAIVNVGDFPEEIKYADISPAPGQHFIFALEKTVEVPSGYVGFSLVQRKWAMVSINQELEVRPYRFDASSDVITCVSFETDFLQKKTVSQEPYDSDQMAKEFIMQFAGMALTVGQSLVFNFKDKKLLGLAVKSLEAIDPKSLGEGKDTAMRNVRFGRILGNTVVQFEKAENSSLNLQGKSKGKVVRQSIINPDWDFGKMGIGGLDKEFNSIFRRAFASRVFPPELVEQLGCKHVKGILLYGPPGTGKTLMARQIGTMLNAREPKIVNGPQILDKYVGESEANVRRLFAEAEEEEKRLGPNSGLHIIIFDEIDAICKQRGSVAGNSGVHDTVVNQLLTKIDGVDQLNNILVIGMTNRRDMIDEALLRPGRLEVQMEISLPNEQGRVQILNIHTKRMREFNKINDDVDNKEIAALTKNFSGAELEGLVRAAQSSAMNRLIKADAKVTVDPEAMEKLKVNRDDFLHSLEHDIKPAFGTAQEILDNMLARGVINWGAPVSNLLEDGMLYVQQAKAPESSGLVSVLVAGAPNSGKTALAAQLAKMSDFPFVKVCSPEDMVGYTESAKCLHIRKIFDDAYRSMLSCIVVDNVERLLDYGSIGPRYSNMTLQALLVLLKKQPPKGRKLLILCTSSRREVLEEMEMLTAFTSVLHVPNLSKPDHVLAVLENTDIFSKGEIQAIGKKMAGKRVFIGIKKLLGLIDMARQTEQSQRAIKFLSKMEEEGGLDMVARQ
UniProt P29844, residues 19-656: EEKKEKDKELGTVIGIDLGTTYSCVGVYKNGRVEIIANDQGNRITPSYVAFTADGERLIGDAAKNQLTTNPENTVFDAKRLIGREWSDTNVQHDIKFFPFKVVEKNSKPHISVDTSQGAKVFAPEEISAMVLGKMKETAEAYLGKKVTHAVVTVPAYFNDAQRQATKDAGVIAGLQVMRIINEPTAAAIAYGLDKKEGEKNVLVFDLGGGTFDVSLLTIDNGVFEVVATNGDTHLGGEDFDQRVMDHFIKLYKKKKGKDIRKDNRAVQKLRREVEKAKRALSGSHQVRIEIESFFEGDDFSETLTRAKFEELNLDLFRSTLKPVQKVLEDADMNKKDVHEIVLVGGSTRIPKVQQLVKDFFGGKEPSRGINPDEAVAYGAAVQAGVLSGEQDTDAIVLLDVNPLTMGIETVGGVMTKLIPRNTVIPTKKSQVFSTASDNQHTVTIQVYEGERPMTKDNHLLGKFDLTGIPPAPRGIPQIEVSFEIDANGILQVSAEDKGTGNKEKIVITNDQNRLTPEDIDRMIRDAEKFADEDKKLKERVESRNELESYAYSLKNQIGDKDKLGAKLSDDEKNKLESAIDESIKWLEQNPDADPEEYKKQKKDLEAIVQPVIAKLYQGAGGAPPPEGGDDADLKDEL
UniProt P11147: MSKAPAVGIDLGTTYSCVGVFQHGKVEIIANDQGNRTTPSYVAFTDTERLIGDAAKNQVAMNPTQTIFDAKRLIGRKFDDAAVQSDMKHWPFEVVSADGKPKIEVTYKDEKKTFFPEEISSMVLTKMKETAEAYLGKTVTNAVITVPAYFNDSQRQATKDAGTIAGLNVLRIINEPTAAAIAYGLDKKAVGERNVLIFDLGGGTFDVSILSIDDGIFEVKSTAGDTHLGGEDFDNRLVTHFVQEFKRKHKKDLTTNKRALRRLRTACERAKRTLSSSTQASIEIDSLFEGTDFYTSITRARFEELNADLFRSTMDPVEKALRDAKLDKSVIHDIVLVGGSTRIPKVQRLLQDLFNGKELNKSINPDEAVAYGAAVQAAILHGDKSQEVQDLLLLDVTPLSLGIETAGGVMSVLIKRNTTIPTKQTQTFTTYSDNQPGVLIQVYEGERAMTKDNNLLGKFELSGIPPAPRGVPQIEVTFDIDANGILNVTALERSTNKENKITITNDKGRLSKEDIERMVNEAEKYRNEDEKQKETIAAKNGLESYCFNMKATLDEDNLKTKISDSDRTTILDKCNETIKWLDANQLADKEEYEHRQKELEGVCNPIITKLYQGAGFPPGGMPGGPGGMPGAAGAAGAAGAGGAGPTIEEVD

According to paper PMC8480232:

Target: T1, N-terminally EGFP-tagged cysteine string protein (Csp) (Drosophila melanogaster) (UniProt Q03751)
T1 sequence: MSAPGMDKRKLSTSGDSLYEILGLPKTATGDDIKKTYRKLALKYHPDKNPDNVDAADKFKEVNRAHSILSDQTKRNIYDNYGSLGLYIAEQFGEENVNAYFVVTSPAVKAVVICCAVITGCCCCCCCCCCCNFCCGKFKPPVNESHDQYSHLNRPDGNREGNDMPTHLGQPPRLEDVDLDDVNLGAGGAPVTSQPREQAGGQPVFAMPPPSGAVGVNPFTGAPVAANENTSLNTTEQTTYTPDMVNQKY
Experiment: affinity purification with mass spectrometry; EGFP-tagged Csp precipitated with GFP-Trap Dynabeads from lysate of about 4,500 adult fly heads in NETN buffer (50mM Tris pH 7.3, 170mM NaCl, 1mM EDTA, 0.5% NP-40), 1 hour, washed with ice cold NETN; SDS-PAGE, in-gel trypsin digest, LC-MS/MS; compared with EGFP control flies

Comatose (from UniProt P46461 1-745)
binding: binds

Hsc70-3 (from UniProt P29844 19-656)
binding: binds

Hsc70-4 (from UniProt P11147 1-651)
binding: binds

No constants are given. Whether binding was seen depends on the method and setting. Binding seen in cells or lysates may run through a third protein. A yes stands for co-enrichment or nearness to the bait. Other partners may have been found. Sequences can lack the tags named with a protein.
